Experimental data: PubChem BioAssay AID1259424 (University of Nebraska Medical Center, 2018)
Shown is a random part of about 14,000 reagents. 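Higher correlation or smaller distance means closer resemblance to KSR1 loss; control wells, including KSR1 knockdowns, recur on many plates.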 Some reagents were tested in more than one well and are listed for each. Reagent sequences are not shown. Not given: the time to read-out.

Screen: 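Seek colon cancer survival genes behaving like KSR1, using a six-gene signature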 (primary screen)
System: human HCT116 colon cancer cells
Reagents: siRNA pool against human genes, 50 nM
Read-out: 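Six signature mRNAs by branched-DNA multiplex assay, scaled to two housekeeping genes and non-targeting median, log2; matched to mean KSR1 knockdown profile by Pearson correlation and euclidean distance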
Reading the numbers: mean correlation with KSR1 profile and KSR1 correlation: higher = expression change more like KSR1 knockdown; mean distance from KSR1 profile: higher = expression change less like KSR1 knockdown

target | mean correlation with KSR1 profile | mean distance from KSR1 profile | KSR1 correlation, replicate 1 | KSR1 correlation, replicate 2 | KSR1 correlation, replicate 3
TTF2 | -0.0939 | 2.59 | -0.137 | 0.0213 | -0.183
CABP4 | -0.675 | 2.46 | -0.668 | -0.407 | -0.364
DCC | -0.753 | 2.16 | -0.718 | -0.709 | -0.913
RPP14 | 0.0309 | 1.98 | 0.0981 | 0.0682 | 0.226
RNF40 | 0.0603 | 2.39 | -0.303 | 0.0409 | 0.439
GK2 | 0.497 | 1.27 | 0.517 | -0.112 | 0.246
CDH12 | 0.034 | 1.89 | 0.229 | 0.0441 | 0.102
FGGY | -0.0562 | 1.29 | 0.109 | -0.624 | 0.0647
ENG | 0.243 | 1.82 | 0.392 | 0.176 | 0.232
PDLIM4 | 0.678 | 1.02 | 0.808 | 0.464 | 0.648
GABRR1 | -0.214 | 4.82 | -0.12 | -0.243 | -0.373
TM9SF4 | -0.139 | 2.29 | -0.208 | -0.116 | -0.0125
MAOB | -0.324 | 1.75 | -0.54 | -0.273 | -0.572
CELP | -0.0161 | 2.04 | 0.106 | -0.0196 | -0.318
CYP3A43 | 0.648 | 2.36 | 0.253 | 0.475 | 0.836
RBMY1A1 | 0.201 | 1.82 | -0.0631 | 0.158 | 0.478
OR51B2 | 0.65 | 2.93 | 0.678 | 0.465 | 0.805
ZNF26 | 0.338 | 1.96 | 0.459 | 0.199 | 0.48
CCR3 | 0.733 | 1.06 | 0.542 | 0.689 | 0.848
MORC1 | -0.25 | 1.93 | -0.361 | -0.509 | -0.311
TLR1 | -0.00807 | 3.14 | 0.154 | 0.211 | -0.383
FBXO31 | -0.321 | 2.61 | -0.201 | -0.576 | -0.278
UQCRC2 | -0.42 | 2.82 | -0.314 | -0.699 | -0.3
DBF4B | -0.0227 | 3.4 | 0.055 | -0.33 | -0.0361
KPNA5 | -0.27 | 1.79 | -0.193 | -0.561 | -0.376
ZNF182 | 0.73 | 1.82 | 0.757 | 0.754 | 0.716
H3C4 | -0.31 | 1.69 | -0.561 | -0.69 | -0.137
RPL37 | -0.286 | 1.93 | -0.324 | -0.371 | -0.0694
IL21 | 0.191 | 1.22 | 0.203 | 0.226 | 0.29
GSTK1 | 0.0568 | 2.2 | 0.121 | 0.107 | 0.116
NABP1 | -0.334 | 3.76 | -0.394 | -0.36 | -0.258
CLN6 | -0.355 | 2.27 | -0.401 | -0.37 | -0.536
ALG3 | 0.0635 | 3.24 | 0.125 | 0.194 | -0.0343

Continued (7 carried over from the part before).
target | mean correlation with KSR1 profile | mean distance from KSR1 profile | KSR1 correlation, replicate 1 | KSR1 correlation, replicate 2 | KSR1 correlation, replicate 3
H3C4 | -0.31 | 1.69 | -0.561 | -0.69 | -0.137
RPL37 | -0.286 | 1.93 | -0.324 | -0.371 | -0.0694
IL21 | 0.191 | 1.22 | 0.203 | 0.226 | 0.29
GSTK1 | 0.0568 | 2.2 | 0.121 | 0.107 | 0.116
NABP1 | -0.334 | 3.76 | -0.394 | -0.36 | -0.258
CLN6 | -0.355 | 2.27 | -0.401 | -0.37 | -0.536
ALG3 | 0.0635 | 3.24 | 0.125 | 0.194 | -0.0343
NACC1 | -0.066 | 2 | 0.348 | -0.213 | -0.00869
LRRC37A2 | 0.706 | 2.35 | 0.853 | 0.905 | 0.264
PSMC3 | -0.000886 | 5.66 | 0.204 | 0.095 | -0.634
CBX7 | -0.163 | 1.11 | -0.362 | -0.0996 | -0.141
COQ5 | 0.345 | 2.54 | 0.164 | 0.369 | 0.519
FASTKD2 | -0.15 | 3.66 | -0.00272 | -0.184 | -0.153
RFXAP | 0.195 | 1.96 | 0.275 | 0.324 | 0.214
ENAM | -0.122 | 3.5 | -0.0759 | -0.221 | -0.145
HAND1 | 0.681 | 3.1 | 0.742 | 0.629 | 0.668
RANBP1 | -0.312 | 1.8 | -0.43 | -0.365 | 0.0124
WNT7A | 0.179 | 2.1 | 0.428 | -0.305 | -0.0235
MTERF1 | -0.141 | 4.54 | -0.00251 | -0.139 | -0.0772
PCOLCE2 | -0.317 | 2.48 | -0.252 | -0.516 | -0.512
TOPORS | -0.15 | 1.4 | -0.397 | 0.0287 | -0.393
MAP2K1 | 0.431 | 2.02 | 0.547 | 0.725 | -0.329
DEFA6 | -0.0909 | 2.07 | -0.0745 | -0.17 | -0.209
SMG8 | 0.0163 | 2.33 | -0.00898 | -0.103 | -0.03
C8orf33 | 0.316 | 12.8 | 0.398 | 0.156 | 0.254
USP8 | -0.812 | 1.41 | -0.228 | -0.856 | -0.83
COX5B | -0.195 | 1.37 | -0.089 | -0.369 | -0.272
ADRA1B | 0.363 | 2.7 | 0.481 | 0.407 | -0.197
ADRA1B | 0.844 | 1.39 | 0.742 | 0.786 | 0.871
LTBR | -0.14 | 1.43 | -0.207 | -0.154 | 0.0913
PLEKHG3 | -0.337 | 3.01 | -0.181 | -0.462 | -0.429
HAO1 | -0.668 | 2.14 | -0.635 | -0.615 | -0.69
RRP9 | -0.401 | 1.44 | -0.32 | -0.357 | -0.296
UCN | 0.14 | 2.75 | 0.231 | 0.114 | 0.0414
STK31 | -0.336 | 2.92 | -0.157 | -0.329 | -0.577
AFAP1L2 | 0.362 | 2.11 | 0.329 | 0.433 | 0.0236
BMP8B | 0.314 | 2.42 | 0.372 | 0.258 | 0.42
